Results reported in PMC11234455.
Results are given in words; binding and its absence hold for the method and conditions named. Binding seen in cells or lysates may run through a third protein. Some binding calls cover weakened binding; strength is not graded here.

Sequences of proteins named here, by UniProt entry; tags and fusion partners are left off. A change or cut given only in a name is not applied to a line headed by its entry. A line that says so, or that is headed by a name, gives the form on record, which may keep a tag or linker.
cAMP response element-binding protein (Creb), phosphorylated (pCreb) (rat (endogenous in Clone 9 cells)) (P15337, form named): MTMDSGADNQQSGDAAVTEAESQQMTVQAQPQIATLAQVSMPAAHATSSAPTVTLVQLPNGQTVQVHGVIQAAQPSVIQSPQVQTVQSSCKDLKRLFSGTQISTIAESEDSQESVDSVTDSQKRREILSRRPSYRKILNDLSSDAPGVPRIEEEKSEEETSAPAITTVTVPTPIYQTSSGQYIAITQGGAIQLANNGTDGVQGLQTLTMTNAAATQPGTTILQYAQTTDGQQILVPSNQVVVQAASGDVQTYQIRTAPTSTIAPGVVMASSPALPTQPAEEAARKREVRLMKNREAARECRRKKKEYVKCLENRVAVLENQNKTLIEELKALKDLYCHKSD
UniProt Q6JHU9: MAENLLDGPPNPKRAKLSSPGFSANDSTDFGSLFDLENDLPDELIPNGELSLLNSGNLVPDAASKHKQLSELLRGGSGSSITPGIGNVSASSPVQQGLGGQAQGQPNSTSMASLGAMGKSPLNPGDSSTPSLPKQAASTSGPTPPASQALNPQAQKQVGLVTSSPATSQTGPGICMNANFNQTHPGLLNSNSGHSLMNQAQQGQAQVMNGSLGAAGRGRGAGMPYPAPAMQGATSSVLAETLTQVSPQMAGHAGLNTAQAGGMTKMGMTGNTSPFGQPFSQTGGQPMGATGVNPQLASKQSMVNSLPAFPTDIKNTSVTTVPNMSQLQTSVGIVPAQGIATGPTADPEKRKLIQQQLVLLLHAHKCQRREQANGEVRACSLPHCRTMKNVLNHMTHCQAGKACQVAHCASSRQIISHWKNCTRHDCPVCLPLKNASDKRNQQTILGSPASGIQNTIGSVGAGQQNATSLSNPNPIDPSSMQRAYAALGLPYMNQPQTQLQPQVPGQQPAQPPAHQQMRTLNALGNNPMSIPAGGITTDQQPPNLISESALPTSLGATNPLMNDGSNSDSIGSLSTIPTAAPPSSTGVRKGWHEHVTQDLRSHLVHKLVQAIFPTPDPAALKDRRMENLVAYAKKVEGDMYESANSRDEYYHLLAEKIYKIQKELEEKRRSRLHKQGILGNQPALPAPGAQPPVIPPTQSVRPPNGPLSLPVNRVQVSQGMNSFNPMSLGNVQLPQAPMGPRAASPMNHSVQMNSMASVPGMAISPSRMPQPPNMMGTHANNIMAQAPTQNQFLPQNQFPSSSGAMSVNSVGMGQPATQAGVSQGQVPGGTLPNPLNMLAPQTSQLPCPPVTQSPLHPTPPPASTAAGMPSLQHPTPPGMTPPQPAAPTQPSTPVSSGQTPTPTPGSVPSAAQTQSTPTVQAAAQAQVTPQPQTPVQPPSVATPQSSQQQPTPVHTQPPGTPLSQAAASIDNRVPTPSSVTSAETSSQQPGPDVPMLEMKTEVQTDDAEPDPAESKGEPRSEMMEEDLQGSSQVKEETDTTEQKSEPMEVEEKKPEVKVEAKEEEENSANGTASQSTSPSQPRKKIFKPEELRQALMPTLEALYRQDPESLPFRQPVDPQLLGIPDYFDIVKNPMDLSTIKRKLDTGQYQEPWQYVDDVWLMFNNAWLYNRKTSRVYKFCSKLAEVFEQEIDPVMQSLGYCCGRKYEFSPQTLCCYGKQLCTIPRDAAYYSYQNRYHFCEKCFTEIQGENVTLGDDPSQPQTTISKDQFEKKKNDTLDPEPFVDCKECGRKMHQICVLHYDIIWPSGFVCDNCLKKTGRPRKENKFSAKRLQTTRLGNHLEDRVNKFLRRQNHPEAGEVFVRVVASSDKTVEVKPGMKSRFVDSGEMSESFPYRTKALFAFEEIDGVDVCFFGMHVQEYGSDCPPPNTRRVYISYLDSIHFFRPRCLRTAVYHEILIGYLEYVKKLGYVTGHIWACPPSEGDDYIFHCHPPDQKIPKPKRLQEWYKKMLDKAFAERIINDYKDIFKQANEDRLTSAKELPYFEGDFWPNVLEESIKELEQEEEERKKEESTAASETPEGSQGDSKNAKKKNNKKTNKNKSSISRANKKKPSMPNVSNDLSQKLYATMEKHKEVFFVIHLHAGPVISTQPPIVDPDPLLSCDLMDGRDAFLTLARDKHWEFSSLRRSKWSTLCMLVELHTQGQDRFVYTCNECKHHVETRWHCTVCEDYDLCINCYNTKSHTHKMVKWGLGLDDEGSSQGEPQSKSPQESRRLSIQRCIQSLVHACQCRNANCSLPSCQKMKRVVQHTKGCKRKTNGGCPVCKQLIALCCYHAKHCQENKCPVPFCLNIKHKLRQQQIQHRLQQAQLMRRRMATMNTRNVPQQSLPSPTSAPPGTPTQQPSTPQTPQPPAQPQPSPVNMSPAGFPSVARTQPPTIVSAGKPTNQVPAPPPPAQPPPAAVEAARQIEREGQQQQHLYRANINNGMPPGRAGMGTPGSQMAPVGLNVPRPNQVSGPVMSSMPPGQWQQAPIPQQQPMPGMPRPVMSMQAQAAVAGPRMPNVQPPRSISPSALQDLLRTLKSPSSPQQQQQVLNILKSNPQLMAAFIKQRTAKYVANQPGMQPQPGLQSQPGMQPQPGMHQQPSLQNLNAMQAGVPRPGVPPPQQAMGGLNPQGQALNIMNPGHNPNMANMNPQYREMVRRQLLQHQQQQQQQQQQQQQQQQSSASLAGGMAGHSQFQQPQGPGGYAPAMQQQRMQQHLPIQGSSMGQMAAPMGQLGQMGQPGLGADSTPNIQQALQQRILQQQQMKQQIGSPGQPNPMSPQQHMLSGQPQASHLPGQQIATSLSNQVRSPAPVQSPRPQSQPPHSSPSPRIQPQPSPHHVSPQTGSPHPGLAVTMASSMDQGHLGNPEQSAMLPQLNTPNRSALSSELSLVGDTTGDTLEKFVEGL

Target: cAMP response element-binding protein (Creb), phosphorylated (pCreb) (rat (endogenous in Clone 9 cells)) (UniProt P15337)
Test: co-IP; RNA immunoprecipitation (Magna RIP kit): C9 cell lysate incubated in RIP buffer with magnetic beads coated with anti-Creb (pCreb) antibody or control IgG; proteins of the precipitate analysed by western blot; 10% input

Substance: cAMP response element-binding protein-binding protein (CBP) (from UniProt Q6JHU9 1-2442)
- binding: binds
